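Phenotypic screen: M. tuberculosis growth, glucose 7H9 medium, 3 days; the read-out is not stated. Tested at 50 µM. Direction is inferred from retests: higher values go with more growth inhibition. Of about 69,000 compounds tested this way, about 760 (1.1%) reached 50% or more in at least one test.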

Each number is a percent effect as filed. The controls that fix the scale are not given in the record; negative values are as filed. Compounds were drawn at random from those tested, without regard to their results. Two or more numbers in one place are separate tests of the same structure; such repeats can differ widely.

| structure | percent effect |
|---|---|
| `CC(C)(NC(=O)C1CCCN(C2CCCC2)C1)c1nnc(N)s1` (centres undefined) | -9.188 |
| `CC(C(=O)NCc1ccnc(Oc2ccc(F)cc2)c1)n1cncn1` (centres undefined) | -18.36 |
| `COc1ccccc1-c1nc(C(=O)N(C)C)n2ccncc12` | 25.67 |
| `CN(CC1COc2ccccc2O1)C(=O)C1=NN(C)C(=O)CC1` (centres undefined) | -5.883 and 18.84 |
| `O=C(O)C(F)(F)F.O=C(O)C(F)(F)F.O=C1N(c2cccnc2)CCC12CCCN(Cc1ccoc1)C2` (centres undefined) | -2.85 and 1.382 |
| `Cc1cnccc1CN(C)C1CCN(c2ncnc3[nH]cnc23)CC1` | 16.67 |
| `COCCC(=O)N1Cc2ccccc2OC2(CCOCC2)C1` | -8.113 |
| `N#CC1(C(=O)NCCCNc2ccc(C(F)(F)F)cn2)CCCC1` | 109.7 |
| `O=C(Nc1cc(-c2ccccn2)no1)C1CC1` | 1.722 |
| `c1cc(-c2nccn2CCc2nc3c(s2)CCC3)ccn1` | -4.159 and 2.395 |
| `COCCN1C(=O)CC[C@]12CC[C@@H](NCc1ccc(OC)cc1)CC2` | -7.641 and 2.412 |
| `O=C(NCC1(CO)CC1)c1ccccc1Cl` | -0.0591 |
| `CCN(CC)S(=O)(=O)CCNc1nnc(C(C)C)s1` | -59.36 |
| `CC(C)CSCCCNC(=O)C1CCOCC1` | -26.58 |
| `O=C(NCCn1ccnc1)N1CCN(Cc2ccco2)CC1` | -24.73 |
| `CCc1nc(CCn2cc(-c3nccn3C)nn2)no1` | -14.09 |
| `CC(C)(C)CC(=O)Nc1ccccc1SCC(N)=O` | -9.564 |
| `[H][C@]12CC[C@]([H])(CN(Cc3ccncc3)C1)N(C(=O)N1CCCC1)C2` | -26.3 and -9.638 |
| `Cc1cnnn1Cc1ncn2c1CN(Cc1cccs1)CCC2.O=C(O)C(F)(F)F` | -5.606 |
| `c1csc(C2(NCc3csc(C4CC4)n3)CCCC2)n1` | -11.33 and 6.549 |
| `CCc1noc(CNC2CCCN(Cc3noc(C4CC4)n3)C2)n1` (centres undefined) | 17.91 |
| `COc1ccc(CS(=O)(=O)CC(=O)NCc2ccccc2F)cc1F` | 9.954 and -7.682 |
| `Cc1ccc(CN2CCN(c3cncc(N(C)C)n3)CC2=O)cc1C` | 7.788 |
| `Cc1noc(C)c1-c1cccc(CC2CCN(C(=O)c3cscn3)C2)n1` (centres undefined) | 0.863 |
| `CC(C)c1cc2c(O)nc(CSCC(=O)NCc3ccncc3)nc2s1` | -4.189 |
| `CCN(CC)C(=O)CN1CCCC1c1nc(C)c2c(n1)N(C)C(=O)CC2` (centres undefined) | -37.76 |
| `CSCC(=O)N1CCCC(CCC(=O)N(C)CCc2ccccn2)C1` (centres undefined) | -3.491 |
| `CCC(C(=O)NCc1ccccn1)N(c1cccc(C)c1)S(C)(=O)=O` (centres undefined) | -2.097 |
| `Cc1cc(=O)n(CC(=O)NCC2CCCO2)c(-c2cccc(Cl)c2)n1` (centres undefined) | 16.23 |
| `COc1ccccc1CNC(=O)N1CCCC(CO)C1` (centres undefined) | 0.5894 and -57.37 |
| `Cc1nnc2n1CC(CNc1cnc3ccccc3n1)CC2` (centres undefined) | -20.41 |
| `O=C(c1cc2c(s1)CCCCC2)N1CCC(c2ncc[nH]2)CC1` | 9.925 |
| `CC(=O)N[C@@H]1CN(C(=O)c2cc3sccc3[nH]2)C[C@H]1c1ccc(C)o1` | -45.19 |
| `O=C1CCCN1Cc1ncn2c1CN(S(=O)(=O)c1cccs1)CCC2` | -4.643 and -2.975 |
| `COc1ccc(F)c(-c2nccn2CCN2CCCC2)c1` | -0.3538 |
| `CCCn1nc2c(cc1=O)CN(CC(=O)Nc1nnc(C)s1)CC2` | 6.998 |
| `Cn1nc(N2CCCC(C(=O)Nc3nc4ccccc4[nH]3)C2)ccc1=O` (centres undefined) | -5.129 |
| `COCCN1CCC(CNC(=O)C2(c3cc(C)cc(C)c3)CC2)CC1` | 15.52 |
| `CC(C)CN1CCC2(CCN(Cc3ccc(F)cc3)CC2)C1=O.O=C(O)C(F)(F)F` | 19.8 |
| `COc1cccc2c1CCN(C(=O)NCc1nnc3ccccn13)C2` | -19.34 |
| `[H][C@@]12C[C@@H](OCc3ccccn3)CN1CCN(C(=O)c1ccnnc1)C2` | -9.426 |
| `CSc1ccc(C(CN)N2CCc3sccc3C2)cc1` (centres undefined) | -15.45 and 71.78 |
| `COc1ccnc(N2CCN(C(=O)CCc3cnn(C)c3)CC2)n1` | 10.03 |
| `CC(=O)N1CCCC1c1ccc(C(=O)N2CCOCC2)s1` (centres undefined) | -7.762 |
| `O=C(CCc1ccccc1F)NS(=O)(=O)c1ccc2c(c1)OCCO2` | 11.83 |
| `O=C(CNC1(CCO)CCOCC1)Nc1ccc(F)cc1F` | 1.106 and -17.76 |
| `O=C(NCCNc1ncccn1)N1CC=C(c2ccccc2)CC1` | 25.83 |
| `O=C(O)C(F)(F)F.[H][C@@]12CCN(Cc3ccccc3)C[C@]1([H])[C@H](C(=O)N(C)C)CCO2` | -31.6 |
| `COC(=O)C(C)(C)NC(=O)c1cnc(Cc2ccc(F)cc2)s1` | 7.818 |
| `O=C(NCCc1nncn1C1CC1)C1SCCc2sccc21` (centres undefined) | 2.602 and 1.736 |
| `CC(C)(C)c1ncc2c(n1)CN(C(=O)c1ccc(-c3nc[nH]n3)cc1)C2` | 5.086 |
| `NCC1(c2cccc(C(F)(F)F)c2)CCCC1` | -10.09 |
| `[H][C@]12CC[C@]([H])(CN(C(=O)c3c[nH]c(=O)c(Cl)c3)C1)N(Cc1ccccc1)C2` | -15.95 |
| `Cc1ccc(CN2CCC3(CCN(c4cnn(C)c4)C3=O)C2)s1.O=C(O)C(F)(F)F` (centres undefined) | -2.794 |
| `CCOC(=O)c1cnn(C2CCN(C(=O)CC(C)(C)C)CC2)c1N` | 16.5 |
| `CCCn1[nH]cc/c1=N\C(=O)CN1CCn2c(nnc2C2CC2)C1` | -19.87 |
| `FC(F)(F)c1cccnc1N1CCC(OC2CCOCC2)CC1` | 17.8 |

Repeated from the top, 6 entries:

| structure | percent effect |
|---|---|
| `CC(C)(NC(=O)C1CCCN(C2CCCC2)C1)c1nnc(N)s1` (centres undefined) | -9.188 |
| `CC(C(=O)NCc1ccnc(Oc2ccc(F)cc2)c1)n1cncn1` (centres undefined) | -18.36 |
| `COc1ccccc1-c1nc(C(=O)N(C)C)n2ccncc12` | 25.67 |
| `CN(CC1COc2ccccc2O1)C(=O)C1=NN(C)C(=O)CC1` (centres undefined) | -5.883 and 18.84 |
| `O=C(O)C(F)(F)F.O=C(O)C(F)(F)F.O=C1N(c2cccnc2)CCC12CCCN(Cc1ccoc1)C2` (centres undefined) | -2.85 and 1.382 |
| `Cc1cnccc1CN(C)C1CCN(c2ncnc3[nH]cnc23)CC1` | 16.67 |

Data taken from ChEMBL document CHEMBL3988442, “University of Dundee, Small-Polar-MMV Screening Library” (2021).